Results are given in words; binding and its absence hold for the method and conditions named. In cells and extracts the contact can be indirect. Some binding calls cover weakened binding; strength is not graded here.
Biological target: RYR2 (human (endogenous in YES2 and KYSE30/KYSE150)) (UniProt Q92736)
Experiment: co-IP; endogenous proteins; Protein A/G magnetic beads with anti-RYR2 antibody or control IgG, 4 °C 1 h; cell extracts added, 4 °C 12 h; western blot for MDM2

Amino acid sequences for entries named in this document (tags omitted).
UniProt Q92736: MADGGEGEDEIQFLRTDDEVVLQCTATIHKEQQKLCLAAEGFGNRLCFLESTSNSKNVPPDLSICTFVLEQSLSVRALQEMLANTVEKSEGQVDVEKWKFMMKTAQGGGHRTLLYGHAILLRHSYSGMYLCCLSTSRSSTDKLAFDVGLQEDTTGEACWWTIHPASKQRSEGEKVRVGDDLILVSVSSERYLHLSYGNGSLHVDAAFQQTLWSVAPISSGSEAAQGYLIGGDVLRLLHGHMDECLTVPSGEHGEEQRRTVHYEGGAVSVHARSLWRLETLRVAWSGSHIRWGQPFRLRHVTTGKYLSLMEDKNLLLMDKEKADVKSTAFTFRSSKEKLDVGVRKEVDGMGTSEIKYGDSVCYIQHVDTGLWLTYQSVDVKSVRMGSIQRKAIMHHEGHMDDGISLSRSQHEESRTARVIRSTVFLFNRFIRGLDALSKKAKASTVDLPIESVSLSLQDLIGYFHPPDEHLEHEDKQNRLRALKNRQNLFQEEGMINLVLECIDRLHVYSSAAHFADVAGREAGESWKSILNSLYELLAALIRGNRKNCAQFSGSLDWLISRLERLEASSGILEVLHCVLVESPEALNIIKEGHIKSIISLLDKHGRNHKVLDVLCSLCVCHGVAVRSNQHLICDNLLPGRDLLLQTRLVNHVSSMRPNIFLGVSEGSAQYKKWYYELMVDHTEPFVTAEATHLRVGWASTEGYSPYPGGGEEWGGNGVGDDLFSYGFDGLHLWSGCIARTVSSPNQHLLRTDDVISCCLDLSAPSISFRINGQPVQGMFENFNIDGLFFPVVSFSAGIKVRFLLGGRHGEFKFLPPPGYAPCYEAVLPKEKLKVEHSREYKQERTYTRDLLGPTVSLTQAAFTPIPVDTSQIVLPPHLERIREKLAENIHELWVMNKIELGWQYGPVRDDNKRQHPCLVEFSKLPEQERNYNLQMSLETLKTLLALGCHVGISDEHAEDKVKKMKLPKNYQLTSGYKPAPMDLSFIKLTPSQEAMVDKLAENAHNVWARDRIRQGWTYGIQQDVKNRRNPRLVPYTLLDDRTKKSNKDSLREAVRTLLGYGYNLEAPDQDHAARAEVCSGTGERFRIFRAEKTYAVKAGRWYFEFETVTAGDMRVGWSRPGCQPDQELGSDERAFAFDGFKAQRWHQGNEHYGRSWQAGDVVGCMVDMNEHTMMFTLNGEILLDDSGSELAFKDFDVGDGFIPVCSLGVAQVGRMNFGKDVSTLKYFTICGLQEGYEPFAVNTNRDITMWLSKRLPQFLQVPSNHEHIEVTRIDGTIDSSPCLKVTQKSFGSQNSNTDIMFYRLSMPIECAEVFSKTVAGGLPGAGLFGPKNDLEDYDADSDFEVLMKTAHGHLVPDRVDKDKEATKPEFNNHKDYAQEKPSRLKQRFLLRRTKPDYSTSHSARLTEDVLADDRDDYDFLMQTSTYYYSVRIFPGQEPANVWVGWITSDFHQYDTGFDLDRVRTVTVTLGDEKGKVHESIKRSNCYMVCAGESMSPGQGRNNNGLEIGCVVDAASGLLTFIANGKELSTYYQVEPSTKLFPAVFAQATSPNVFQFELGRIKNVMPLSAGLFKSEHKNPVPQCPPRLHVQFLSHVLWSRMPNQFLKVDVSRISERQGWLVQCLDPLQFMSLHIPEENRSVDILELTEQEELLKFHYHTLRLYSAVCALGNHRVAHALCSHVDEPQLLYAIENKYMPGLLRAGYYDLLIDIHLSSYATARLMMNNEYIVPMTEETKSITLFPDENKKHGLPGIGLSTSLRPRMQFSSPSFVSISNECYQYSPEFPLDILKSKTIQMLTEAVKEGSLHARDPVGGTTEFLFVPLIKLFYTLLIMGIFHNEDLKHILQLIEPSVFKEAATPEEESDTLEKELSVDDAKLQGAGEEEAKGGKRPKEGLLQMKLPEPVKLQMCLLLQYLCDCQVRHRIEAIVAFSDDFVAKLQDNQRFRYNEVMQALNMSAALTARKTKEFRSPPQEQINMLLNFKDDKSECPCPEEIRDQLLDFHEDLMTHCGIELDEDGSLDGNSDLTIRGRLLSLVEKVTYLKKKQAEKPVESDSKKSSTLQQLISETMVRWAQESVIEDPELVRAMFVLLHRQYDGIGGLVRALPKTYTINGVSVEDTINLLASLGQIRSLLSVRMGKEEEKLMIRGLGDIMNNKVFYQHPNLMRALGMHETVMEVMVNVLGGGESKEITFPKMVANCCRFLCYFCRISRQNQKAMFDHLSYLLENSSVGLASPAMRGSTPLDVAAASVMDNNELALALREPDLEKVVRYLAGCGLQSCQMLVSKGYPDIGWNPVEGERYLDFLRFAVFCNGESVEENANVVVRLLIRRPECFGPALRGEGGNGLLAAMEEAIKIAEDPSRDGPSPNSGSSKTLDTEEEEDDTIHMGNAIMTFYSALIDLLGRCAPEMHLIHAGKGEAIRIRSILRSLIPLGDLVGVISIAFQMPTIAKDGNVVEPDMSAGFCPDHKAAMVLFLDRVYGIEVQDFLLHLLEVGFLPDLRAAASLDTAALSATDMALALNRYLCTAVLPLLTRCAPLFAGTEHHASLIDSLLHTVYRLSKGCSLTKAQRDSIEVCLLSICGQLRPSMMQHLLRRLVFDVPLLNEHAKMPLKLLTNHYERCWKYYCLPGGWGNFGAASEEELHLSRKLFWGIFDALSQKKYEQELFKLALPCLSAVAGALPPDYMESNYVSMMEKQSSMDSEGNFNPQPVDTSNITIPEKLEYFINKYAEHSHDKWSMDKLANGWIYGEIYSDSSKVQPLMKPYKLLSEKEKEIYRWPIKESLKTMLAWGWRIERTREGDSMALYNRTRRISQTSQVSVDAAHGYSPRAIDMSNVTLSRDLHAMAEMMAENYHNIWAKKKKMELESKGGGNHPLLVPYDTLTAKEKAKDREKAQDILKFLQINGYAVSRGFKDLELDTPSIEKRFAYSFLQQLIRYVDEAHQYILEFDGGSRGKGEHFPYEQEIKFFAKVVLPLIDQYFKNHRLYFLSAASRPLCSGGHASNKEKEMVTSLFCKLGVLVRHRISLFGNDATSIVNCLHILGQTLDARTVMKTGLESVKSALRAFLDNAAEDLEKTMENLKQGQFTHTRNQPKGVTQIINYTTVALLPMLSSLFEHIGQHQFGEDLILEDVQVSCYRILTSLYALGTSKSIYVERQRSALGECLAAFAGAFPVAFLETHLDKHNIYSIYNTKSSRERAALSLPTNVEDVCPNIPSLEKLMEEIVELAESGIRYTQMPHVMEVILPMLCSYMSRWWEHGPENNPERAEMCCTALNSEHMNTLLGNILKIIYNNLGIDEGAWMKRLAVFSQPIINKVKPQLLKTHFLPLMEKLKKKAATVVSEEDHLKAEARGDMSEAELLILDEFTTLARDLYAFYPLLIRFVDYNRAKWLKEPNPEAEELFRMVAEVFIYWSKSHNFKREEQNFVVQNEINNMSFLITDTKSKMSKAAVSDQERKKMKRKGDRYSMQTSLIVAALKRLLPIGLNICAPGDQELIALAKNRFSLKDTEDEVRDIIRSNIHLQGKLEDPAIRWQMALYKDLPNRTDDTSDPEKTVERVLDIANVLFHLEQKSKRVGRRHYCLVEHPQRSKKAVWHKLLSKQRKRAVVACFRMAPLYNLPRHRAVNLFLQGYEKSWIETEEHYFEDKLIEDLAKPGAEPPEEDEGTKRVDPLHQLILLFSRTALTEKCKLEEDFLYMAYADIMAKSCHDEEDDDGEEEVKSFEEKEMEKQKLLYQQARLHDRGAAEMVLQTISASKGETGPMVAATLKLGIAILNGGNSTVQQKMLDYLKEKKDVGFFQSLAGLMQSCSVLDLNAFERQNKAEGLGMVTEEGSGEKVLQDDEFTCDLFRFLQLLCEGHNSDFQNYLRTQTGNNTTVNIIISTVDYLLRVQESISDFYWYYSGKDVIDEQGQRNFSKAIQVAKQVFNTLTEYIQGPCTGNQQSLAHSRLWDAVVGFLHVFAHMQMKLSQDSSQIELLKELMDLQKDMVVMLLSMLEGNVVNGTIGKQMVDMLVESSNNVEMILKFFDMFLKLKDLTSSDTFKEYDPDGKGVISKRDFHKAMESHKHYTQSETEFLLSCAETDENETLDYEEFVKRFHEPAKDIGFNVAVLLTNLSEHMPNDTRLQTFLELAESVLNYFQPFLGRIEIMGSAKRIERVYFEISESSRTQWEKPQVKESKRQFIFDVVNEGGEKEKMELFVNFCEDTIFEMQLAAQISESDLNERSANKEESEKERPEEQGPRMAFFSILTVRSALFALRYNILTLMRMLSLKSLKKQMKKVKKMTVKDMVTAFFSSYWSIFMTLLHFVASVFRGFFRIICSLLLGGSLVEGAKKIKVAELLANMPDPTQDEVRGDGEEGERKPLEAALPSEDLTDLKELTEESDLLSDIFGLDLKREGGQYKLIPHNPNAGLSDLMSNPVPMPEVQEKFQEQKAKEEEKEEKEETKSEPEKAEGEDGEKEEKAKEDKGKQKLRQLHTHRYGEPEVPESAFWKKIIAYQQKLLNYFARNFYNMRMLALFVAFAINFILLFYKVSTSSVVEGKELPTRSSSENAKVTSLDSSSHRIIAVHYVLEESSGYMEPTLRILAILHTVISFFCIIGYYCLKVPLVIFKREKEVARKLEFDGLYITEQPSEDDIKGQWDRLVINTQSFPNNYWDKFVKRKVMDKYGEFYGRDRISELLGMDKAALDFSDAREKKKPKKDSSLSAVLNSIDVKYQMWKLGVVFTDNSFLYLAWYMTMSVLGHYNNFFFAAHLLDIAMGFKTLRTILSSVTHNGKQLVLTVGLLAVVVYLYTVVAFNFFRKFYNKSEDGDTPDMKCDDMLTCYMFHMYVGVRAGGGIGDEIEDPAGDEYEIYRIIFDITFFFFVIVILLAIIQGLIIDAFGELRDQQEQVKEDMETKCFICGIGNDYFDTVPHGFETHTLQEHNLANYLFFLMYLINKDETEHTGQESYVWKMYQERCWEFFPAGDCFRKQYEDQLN
UniProt Q00987: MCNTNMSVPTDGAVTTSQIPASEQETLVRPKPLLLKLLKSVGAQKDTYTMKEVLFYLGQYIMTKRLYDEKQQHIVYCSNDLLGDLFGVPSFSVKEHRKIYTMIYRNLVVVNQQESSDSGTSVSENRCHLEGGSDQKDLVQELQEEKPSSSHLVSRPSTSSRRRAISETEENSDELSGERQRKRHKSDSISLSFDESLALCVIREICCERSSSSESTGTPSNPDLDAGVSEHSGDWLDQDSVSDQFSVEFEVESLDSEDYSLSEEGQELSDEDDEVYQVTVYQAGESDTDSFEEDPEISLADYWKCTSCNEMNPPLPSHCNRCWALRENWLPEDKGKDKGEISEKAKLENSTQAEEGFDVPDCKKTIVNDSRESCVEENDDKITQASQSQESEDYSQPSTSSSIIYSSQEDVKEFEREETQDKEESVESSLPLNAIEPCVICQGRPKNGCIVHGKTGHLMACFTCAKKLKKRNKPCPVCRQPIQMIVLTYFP

binding: binds
Substance: MDM2 (from UniProt Q00987 1-491)
